The list does not hold the whole screen: it is rich in T/C values a quarter to a half above the control, in often repeated tests (any T/C) and in doses without a T/C. Further doses and runs are listed elsewhere. T/C is the treated group as % of the vehicle group. Some doses have a count of surviving animals in place of a T/C: the source files T/C as zero there, which appears to mark a toxic dose or a test without result, not a measured value. Some survivor counts are full or nearly so, which does not show that the dose was tolerated: survival well below the control is almost never listed, so the zero probably covers shortened survival too. Counts of survivors are from the toxicity check (mostly the fifth day) where no day follows; animals may have died later. Schedules are NCI's codes, read here as Q, the interval in days (D) or hours (H), X, the number of doses. Some entries were tested several times; their values stand side by side, smallest first. Some schedule codes hold Z or #, which are not explained here. Where survival is the endpoint, this PubChem deposit counts one and a half times the control or more as active, and values a quarter to a half above the control carry no call in these data; other NCI protocols may use other cut-offs.

This note sets out measurements from PubChem BioAssay AID248 (DTP/NCI, 2004).

This assay deals with L1210 leukemia ip in BDF1 mice, survival T/C. Briefly: NCI In Vivo Anticancer Drug Screen. Data for tumor model L1210 Leukemia (intraperitoneal) in B6D2F1 (BDF1) mice. The settings on record: T/C endpoint: mean survival time, higher T/C = longer survival.
Where [1] appears, read: dose: 50.0 mg/kg/injection, schedule: Q01DX009 (ip), vehicle: other.
The mark [2] stands for this setting: dose: 100.0 mg/kg/injection, schedule: Q01DX009 (ip), vehicle: other.
Setting [3] is: dose: 200.0 mg/kg/injection, schedule: Q01DX009 (ip), vehicle: other.
The mark [4] stands for this setting: dose: 200.0 mg/kg/injection, schedule: Q01DX009 (ip), vehicle: saline with Tween-80.
Setting [5] is: dose: 200.0 mg/kg/injection, schedule: Q01DX009 (ip), vehicle: Klucel (hydroxypropylcellulose) (HPC).
Setting [6] is: dose: 400.0 mg/kg/injection, schedule: Q04DX003 (ip), vehicle: Klucel (hydroxypropylcellulose) (HPC).
Where [7] appears, read: dose: 200.0 mg/kg/injection, schedule: Q04DX002 (ip), vehicle: Klucel (hydroxypropylcellulose) (HPC).
Where [8] appears, read: dose: 400.0 mg/kg/injection, schedule: Q04DX002 (ip), vehicle: Klucel (hydroxypropylcellulose) (HPC).
The mark [9] stands for this setting: dose: 100.0 mg/kg/injection, schedule: Q04DX003 (ip), vehicle: saline.
Setting [10] is: dose: 200.0 mg/kg/injection, schedule: Q04DX003 (ip), vehicle: saline.
Setting [11] is: dose: 400.0 mg/kg/injection, schedule: Q04DX003 (ip), vehicle: saline.
The mark [12] stands for this setting: dose: 100.0 mg/kg/injection, schedule: Q04DX003 (ip), vehicle: saline with Tween-80.
Setting [13] is: dose: 400.0 mg/kg/injection, schedule: Q04DX003 (ip), vehicle: saline with Tween-80.
Setting [14] is: dose: 200.0 mg/kg/injection, schedule: Q01DX009 (ip), vehicle: saline.

In the case of `CCCCNC(=O)OCc1cnc(C)n1Cc1ccccc1`, the T/C reads like this: under setting [1], 93, 104, 109 % of control; under setting [2], 94, 97, 98 % of control. Moreover, the survivor count under setting [1] is given as 3 of 6; the survivor count under setting [2] is 3 of 3; the survivor count under setting [3] is 1 of 6 and 1 of 3; the survivor count (dose: 400.0 mg/kg/injection, schedule: Q01DX001 (ip), vehicle: carboxymethylcellulose (CMC)) is given as 3 of 6; the survivor count (dose: 400.0 mg/kg/injection, schedule: Q04DX002 (ip), vehicle: other) is 0 of 3 and 0 of 6.

As to `CO[C@@H]1[C@@H](OC2OC(C)C(OC3CC(C)(O)C(OC(=O)CC(C)C)C(C)O3)C(N(C)C)C2O)[C@@H](CC=O)C[C@@H](C)C(=O)/C=C/C2O[C@H]2C[C@@H](C)OC(=O)C[C@H]1OC(C)=O` (some centres not stated), the survivor count is reported as 6 of 6 (dose: 50.0 mg/kg/injection, schedule: Q#A X030 (ip), vehicle: water); 6 of 6 (dose: 400.0 mg/kg/injection, schedule: Q01DX015 (ip), vehicle: water); 0 of 6 (dose: 600.0 mg/kg/injection, schedule: Q01DX015 (ip), vehicle: water); 6 of 6 (dose: 1000.0 mg/kg/injection, schedule: Q01DX015 (oral), vehicle: water); 6 of 6 (dose: 1500.0 mg/kg/injection, schedule: Q01DX015 (oral), vehicle: water).

On to `CCN(C(C)(C)C(SSSC(c1ccc(Cl)cc1)C(C)(C)N(CC)S(C)(=O)=O)c1ccc(Cl)cc1)S(C)(=O)=O` (configuration not stated), for which the survivor count under setting [4] is on record as 5 of 6 and the survivor count (dose: 400.0 mg/kg/injection, schedule: Q01DX009 (ip), vehicle: saline with Tween-80) is recorded as 0 of 6.

As to `CCOC(=O)C1CCCCN1` (configuration not stated), the survivor count (dose: 300.0 mg/kg/injection, schedule: Q01DX001 (ip), vehicle: saline) is reported as 4 of 6.

Turning to `COC(=O)c1nc(Cl)nc(S(C)(=O)=O)c1Cl`, the survivor count under setting [5] is given as 0 of 3.

As for `CN(CCO)N=Nc1ccccc1`, the survivor count is 6 of 6 (dose: 12.5 mg/kg/injection, schedule: Q04DX003 (ip), vehicle: other); 6 of 6 (dose: 25.0 mg/kg/injection, schedule: Q04DX003 (ip), vehicle: other); 1 of 6 under setting [1]; 2 of 6 and 6 of 6 (dose: 50.0 mg/kg/injection, schedule: Q04DX003 (ip), vehicle: other); 0 of 6 under setting [2]; 0 of 6 (dose: 100.0 mg/kg/injection, schedule: Q04DX003 (ip), vehicle: other). Besides, the survivor count under setting [3] was 0 of 6; the survivor count (dose: 200.0 mg/kg/injection, schedule: Q04DX003 (ip), vehicle: other) is 0 of 6; the survivor count (dose: 400.0 mg/kg/injection, schedule: Q01DX009 (ip), vehicle: other) is given as 0 of 6.

Turning to `CC1(C)OC2C(COC(=O)Oc3ccccc3)OC(n3cnc4c(=S)nc[nH]c43)C2O1` (configuration not stated), the survivor count was 2 of 6 (dose: 50.0 mg/kg/injection, schedule: Q01DX009 (ip), vehicle: saline with Tween-80); 2 of 6 under setting [4]; 2 of 6 under setting [6].

Turning to `CCN(CC)CCCNc1c2ccc(Cl)cc2nc2ccc(OC)cc12`, the survivor count by setting is: (dose: 50.0 mg/kg/injection, schedule: Q01DX001 (ip), vehicle: saline) 2 of 4; (dose: 100.0 mg/kg/injection, schedule: Q01DX001 (ip), vehicle: saline) 0 of 4; (dose: 200.0 mg/kg/injection, schedule: Q01DX001 (ip), vehicle: saline) 0 of 4; (dose: 400.0 mg/kg/injection, schedule: Q01DX001 (ip), vehicle: saline) 0 of 4.

As to `COc1ccccc1NC(=O)NCCN1CCCC1`, the survivor count (dose: 400.0 mg/kg/injection, schedule: Q01DX009 (ip), vehicle: Klucel (hydroxypropylcellulose) (HPC)) is 0 of 6.

Take `NC(CSS(=O)(=O)O)=NCCc1ccc(O)cc1`: the survivor count is listed as 3 of 3 (dose: 50.0 mg/kg/injection, schedule: Q04DX002 (ip), vehicle: Klucel (hydroxypropylcellulose) (HPC)); 3 of 3 under setting [7]; 0 of 3 under setting [8].

For the compound `CCOC(=O)CNC(=O)C(CSSCC(NC(=O)OCc1ccccc1)C(=O)NCC(=O)OCC)NC(=O)OCc1ccccc1` (configuration not stated), the survivor count is listed as 6 of 6 (dose: 200.0 mg/kg/injection, schedule: Q04DX003 (ip), vehicle: Klucel (hydroxypropylcellulose) (HPC)) and 6 of 6 under setting [6].

Regarding `CN1Cc2cc3cc(c2O)C[N+](C)(C)Cc2c(Cl)c(c(Cl)c(c2Cl)C[N+](C)(C)C3)C1`, the survivor count is, setting by setting: (dose: 50.0 mg/kg/injection, schedule: Q01DX009 (ip), vehicle: saline) 0 of 6; under setting [9], 0 of 6; under setting [10], 0 of 6; under setting [11], 0 of 6.

Take `Nc1ncnc2nccnc12`: the survivor count (dose: 225.0 mg/kg/injection, schedule: Q01DX Z (ip), vehicle: saline) was 0 of 6.

As to `CC(=O)OC1OC(COC(=O)c2ccccc2)C(OC(=O)c2ccccc2)C1OC(=O)c1ccccc1` (configuration not stated), the survivor count under setting [5] is 6 of 6.

As to `O=C(O)c1cc([N+](=O)[O-])ccc1Nc1ccccc1`, the survivor count under setting [12] is listed as 6 of 6 and the survivor count under setting [13] is listed as 0 of 6.

Take `N#Cc1nc2c(nc1N)CCCCCCCCCC2`: under “dose: 200.0 mg/kg/injection, schedule: Q01DX001 (ip), vehicle: Klucel (hydroxypropylcellulose) (HPC)”, the survivor count is 3 of 3.

Turning to `NC1(c2ccccc2)CCCCC1`, the survivor count is 0 of 6 (dose: 100.0 mg/kg/injection, schedule: Q01DX009 (ip), vehicle: saline); 3 of 4 under setting [9]; 0 of 6 under setting [14]; 0 of 4 under setting [10]; 0 of 6 (dose: 400.0 mg/kg/injection, schedule: Q01DX009 (ip), vehicle: saline); 0 of 4 under setting [11].

Consider `O=C(CBr)c1ccc(-c2ccccc2)cc1`, for which the survivor count is recorded as 3 of 6 (dose: 50.0 mg/kg/injection, schedule: Q01DX009 (ip), vehicle: Klucel (hydroxypropylcellulose) (HPC)); 1 of 6 (dose: 100.0 mg/kg/injection, schedule: Q01DX009 (ip), vehicle: Klucel (hydroxypropylcellulose) (HPC)); 0 of 6 (dose: 150.0 mg/kg/injection, schedule: Q01DX009 (ip), vehicle: Klucel (hydroxypropylcellulose) (HPC)); 1 of 6 under setting [6].

Turning to `Cc1c(O)cccc1F`, the survivor count is 1 of 3 under setting [7] and 0 of 3 under setting [8].

Consider `CCCCCCCCCCCCCCCCOC(=O)C[n+]1ccc(C(N)=O)cc1`, for which, under “dose: 400.0 mg/kg/injection, schedule: Q04DX003 (ip), vehicle: acetone”, the survivor count is recorded as 3 of 6.

As to `C/C=C/C1N(C)CCCN1C`, the survivor count (dose: 100.0 mg/kg/injection, schedule: Q01DX009 (ip), vehicle: saline with Tween-80) is on record as 3 of 6; the survivor count under setting [12] is 4 of 6; the survivor count (dose: 200.0 mg/kg/injection, schedule: Q04DX003 (ip), vehicle: saline with Tween-80) is reported as 0 of 6; the survivor count under setting [13] is reported as 0 of 6.

Regarding `O/N=C1/CCN2CCCc3cccc1c32`, the survivor count under setting [13] is 1 of 6.

Regarding `Cn1nc(N)c2nccnc21`, the survivor count by setting is: under setting [14], 6 of 6; (dose: 400.0 mg/kg/injection, schedule: Q04DX003 (ip), vehicle: alcohol) 1 of 6.
